Measurements reported in PubChem BioAssay AID686938 (Drosophila RNAi Screening Center, 2013).
Purpose: 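Fly genes required for calcium entry once internal stores are emptied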 (primary screen). System: Drosophila S2R+ cells. Reagents: long dsRNA against Drosophila genes, about 0.25 µg dsRNA per well, roughly 10,000 cells. Duration: 5 days of knock-down before the calcium assay. Challenge: thapsigargin (SERCA pump blocker) to empty calcium stores; entry signal taken 4 min after adding it. Measurement: 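Per-well fluo-4 fluorescence in two replicates, unnormalised, measured in resting cells and 4 min after store depletion by the SERCA blocker thapsigargin; ratio of the two present in few wells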. Direction: calcium entry signal: higher = stronger calcium signal after store depletion; resting calcium signal: higher = higher resting calcium signal. Rule for the call: 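Called when the plate z-score of the entry-to-rest ratio, mean of duplicates, falls below −3; wells with low overall dye signal (Fmax z below −2) or more than five off-targets excluded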. Calls: active = strongly reduced calcium entry; inactive = no strong reduction.
The deposit covers about 23,000 reagents; below is an unselected part of those with a known target gene and a result. In the full data, 75 (0.33%) got an active call. 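Raw plate signals without normalisation; calls rest on plate z-scores that were not deposited; ratio present for only 364 wells.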 Unmarked entries are inactive. Names joined by + are all predicted targets of the reagent. The record does not give: the dose of the treatment.

| Gene | DRSC id | calcium entry signal, replicate 1 (fluorescence units) | calcium entry signal, replicate 2 (fluorescence units) | resting calcium signal, replicate 1 (fluorescence units) | resting calcium signal, replicate 2 (fluorescence units) |
| --- | --- | --- | --- | --- | --- |
| Ubx | DRSC16891 | 2.66e7 | 4.56e7 | 1.30e7 | 2.11e7 |
| mRpS9 | DRSC12645 | 2.69e7 | 4.12e7 | 1.16e7 | 1.68e7 |
| mRpS9 | DRSC15456 | 5.69e7 | 6.27e7 | 2.63e7 | 2.77e7 |
| frac | DRSC10867 | 4.15e7 | 3.00e7 | 2.81e7 | 1.45e7 |
| CG34299 | DRSC13974 | 3.67e7 | 4.34e7 | 1.58e7 | 2.18e7 |
| CG7368 | DRSC10826 | 3.26e7 | 3.30e7 | 1.60e7 | 1.45e7 |
| CG7368 | DRSC22821 | 3.20e7 | 4.64e7 | 1.56e7 | 2.18e7 |
| Hsp110 | DRSC11186 | 2.26e7 | 3.12e7 | 1.30e7 | 2.42e7 |
| CG34214 | DRSC04490 | 4.34e7 | – | 2.08e7 | – |
| larp | DRSC14728 | 3.52e7 | 5.40e7 | 1.83e7 | 2.37e7 |
| larp | DRSC16984 | 3.51e7 | 5.42e7 | 1.81e7 | 2.43e7 |
| larp | DRSC21856 | 2.39e7 | 4.37e7 | 1.22e7 | 2.01e7 |
| Grl58a | DRSC04145 | 4.67e7 | 5.49e7 | 2.32e7 | 2.34e7 |
| Pex19 | DRSC02839 | 4.48e7 | – | 2.13e7 | – |
| bin3 | DRSC04919 | 5.63e7 | 4.11e7 | 2.72e7 | 1.97e7 |

Laid out differently: results already given.
frac [DRSC10867] — calcium entry signal, replicate 1 (fluorescence units): 4.15e7; calcium entry signal, replicate 2 (fluorescence units): 3.00e7; resting calcium signal, replicate 1 (fluorescence units): 2.81e7; resting calcium signal, replicate 2 (fluorescence units): 1.45e7
CG34299 [DRSC13974] — calcium entry signal, replicate 1 (fluorescence units): 3.67e7; calcium entry signal, replicate 2 (fluorescence units): 4.34e7; resting calcium signal, replicate 1 (fluorescence units): 1.58e7; resting calcium signal, replicate 2 (fluorescence units): 2.18e7
CG7368 [DRSC10826] — calcium entry signal, replicate 1 (fluorescence units): 3.26e7; calcium entry signal, replicate 2 (fluorescence units): 3.30e7; resting calcium signal, replicate 1 (fluorescence units): 1.60e7; resting calcium signal, replicate 2 (fluorescence units): 1.45e7
CG7368 [DRSC22821] — calcium entry signal, replicate 1 (fluorescence units): 3.20e7; calcium entry signal, replicate 2 (fluorescence units): 4.64e7; resting calcium signal, replicate 1 (fluorescence units): 1.56e7; resting calcium signal, replicate 2 (fluorescence units): 2.18e7
Hsp110 [DRSC11186] — calcium entry signal, replicate 1 (fluorescence units): 2.26e7; calcium entry signal, replicate 2 (fluorescence units): 3.12e7; resting calcium signal, replicate 1 (fluorescence units): 1.30e7; resting calcium signal, replicate 2 (fluorescence units): 2.42e7
CG34214 [DRSC04490] — calcium entry signal, replicate 1 (fluorescence units): 4.34e7; resting calcium signal, replicate 1 (fluorescence units): 2.08e7

Continued:
| Gene | DRSC id | calcium entry signal, replicate 1 (fluorescence units) | calcium entry signal, replicate 2 (fluorescence units) | resting calcium signal, replicate 1 (fluorescence units) | resting calcium signal, replicate 2 (fluorescence units) |
| --- | --- | --- | --- | --- | --- |
| AMPdeam | DRSC18996 | 2.21e7 | 3.10e7 | 1.14e7 | 1.38e7 |
| AMPdeam | DRSC19366 | 2.41e7 | 2.55e7 | 1.19e7 | 1.27e7 |
| AMPdeam | DRSC19368 | 2.06e7 | 2.93e7 | 1.19e7 | 1.28e7 |
| AMPdeam | DRSC19727 | 1.98e7 | 2.62e7 | 1.04e7 | 1.16e7 |
| CG8100 | DRSC10961 | 7.47e7 | 6.39e7 | 2.73e7 | 2.62e7 |
| CG15125 | DRSC06547 | 5.96e7 | 6.01e7 | 2.27e7 | 2.71e7 |
| CG7778 | DRSC03067 | 7.73e7 | – | 2.83e7 | – |
| Drs | DRSC08657 | 2.82e7 | 3.82e7 | 1.50e7 | 1.82e7 |
| Pdf | DRSC16786 | 5.46e7 | 3.22e7 | 2.52e7 | 1.58e7 |
| Dph3 | DRSC14923 | 3.07e7 | 2.59e7 | 1.53e7 | 1.46e7 |
| lqf | DRSC11363 | 4.85e7 | 3.99e7 | 3.29e7 | 1.71e7 |
| GstE2 | DRSC06672 | 6.62e7 | 6.01e7 | 2.44e7 | 2.54e7 |
| CR33294 | DRSC22950 | 2.27e7 | 3.35e7 | 1.30e7 | 1.40e7 |
| CG34310 | DRSC00943 | 4.45e7 | 3.78e7 | 2.21e7 | 1.67e7 |
| Klp67A + CG34456 | DRSC10420 | 1.46e7 | 2.32e7 | 8.15e6 | 9.87e6 |
| CG43902 | DRSC17850 | 6.04e7 | 4.20e7 | 2.70e7 | 1.89e7 |
| CG43902 | DRSC17999 | 4.48e7 | 3.80e7 | 2.18e7 | 1.96e7 |
| Prosbeta2R2 | DRSC12193 | 4.28e7 | 2.85e7 | 2.00e7 | 1.27e7 |
| CG5787 | DRSC02895 | 4.62e7 | – | 2.24e7 | – |
| pelo | DRSC03588 | 4.14e7 | – | 1.99e7 | – |
| ttm3 | DRSC03736 | 2.99e7 | 4.19e7 | 1.41e7 | 1.81e7 |
| ValRS | DRSC06864 | 3.68e7 | 2.70e7 | 1.71e7 | 1.37e7 |
| CG14963 | DRSC08422 | 3.11e7 | 3.40e7 | 1.60e7 | 1.52e7 |
| CG43901 | DRSC19397 | 3.54e7 | 5.30e7 | 1.88e7 | 2.70e7 |
| CG43901 | DRSC19652 | 2.66e7 | 4.43e7 | 1.82e7 | 2.57e7 |
| CG43901 | DRSC19653 | 4.53e7 | 4.44e7 | 2.15e7 | 2.51e7 |
| CG43901 | DRSC22791 | 3.99e7 | 3.40e7 | 1.96e7 | 1.68e7 |
